Record: PubChem BioAssay AID1159584 (Peter MacCallum Cancer Centre, 2016)
The deposit covers about 18,000 reagents; below is an unselected part. The record does not give: the amount of reagent, the time to read-out.

Assay: 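Knock-downs that harm CDH1-null cells more than parental MCF10A cells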 (primary screen)
Cell system: human MCF10A breast epithelial cells, parental and CDH1-null
Reagents: siRNA against human genes
Detection: 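Cell viability by CellTiter-Glo ATP luminescence, each line scaled to the mean of mock wells across plates, then CDH1-null over parental ratio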
Direction: CDH1-null / parental viability ratio: higher = CDH1-null cells survive relatively better than parental; CDH1-null viability vs mock: higher = more viable CDH1-null cells; parental viability vs mock: higher = more viable parental cells

gene	CDH1-null / parental viability ratio	CDH1-null viability vs mock (fraction of mock)	parental viability vs mock (fraction of mock)
TACO1	1.12	0.86	0.77
NDUFS5	1.07	0.92	0.86
PIGW	1.02	0.64	0.63
MRI1	0.87	0.8	0.92
OVCA2	0.83	0.69	0.83
AJM1	1.18	0.8	0.68
MYF5	1.07	0.96	0.9
HELZ2	0.99	0.83	0.84
ZAN	0.99	0.82	0.83
HIP1R	1.16	0.88	0.76
C10orf90	1.21	0.82	0.68
NFS1	1	0.89	0.89
EIF2AK2	1.15	1.15	1
IFT27	1.18	1.18	1
PLCB2	1.21	0.94	0.78
SUPT5H	0.75	0.4	0.53
POLH	0.75	0.6	0.8
DOK3	0.85	0.82	0.97
SH3BGR	1.17	1.03	0.88
CDY1B	1.21	0.7	0.58
ZNF322P1	2.69	0.7	0.26
RORB	0.98	0.88	0.9
ZNHIT6	1	0.89	0.89
TSPAN6	1.04	0.98	0.94
TM4SF5	0.96	0.88	0.92
IFNL2	1.1	0.8	0.73
SNX16	1.13	1.15	1.02
TRIML2	1.04	0.96	0.92
MAGEB2	1.18	0.92	0.78
DLG3	0.93	0.9	0.97
PLN	0.95	0.86	0.91
PNPLA8	0.87	0.92	1.06
KCNA3	1.14	1.21	1.06
DDX18	0.84	0.48	0.57
HEY2	0.91	0.69	0.76
IL34	0.98	0.86	0.88
GFI1	0.87	0.88	1.01
LSM3	1.14	0.66	0.58
TMEM232	1.08	0.94	0.87
SIPA1L1	0.9	0.52	0.58
MAGEB18	0.9	0.78	0.87
ARL4C	1.21	0.97	0.8
PRDM12	0.96	0.71	0.74
GLMN	1.39	0.97	0.7
PCDHGA3	0.95	0.78	0.82
ART4	0.91	0.88	0.97
SNRNP27	1.03	0.73	0.71
AASS	0.66	0.48	0.73
TFCP2L1	0.76	0.38	0.5
NOL3	1.06	0.36	0.34
NR1H3	0.78	0.68	0.87
INTS11	0.95	0.59	0.62
AFMID	1.05	0.61	0.58
C3orf52	1.2	0.72	0.6
CSF1	1.06	0.93	0.88
MRTO4	1.02	1	0.98
TAF9B	0.86	0.88	1.02
ZNF333	0.89	0.71	0.8
NIBAN2	0.97	0.72	0.74
STYXL1	1.71	0.82	0.48
TRMT5	0.82	0.7	0.85
ZFP28	1.15	0.85	0.74
UROC1	1.13	0.76	0.67
C1QTNF2	0.96	0.54	0.56
CHSY1	1.08	1.1	1.02
GCG	1.28	0.68	0.53
RSL24D1	1.23	0.64	0.52
LOC389834	1.26	0.86	0.68
